Measurements as given in PMC10163288.
This is one part of the list.

B1: il2ra_site2_3nfp_normal_mot_HHH_b1_00660_af2_000000090_0001_40_57_H_._ems_3hC_866_af2_0001_0000100002_0000001_1 (protein)
chain: SEEEKEAIEELEEQLREAVERNDKELIREIIRLIAHFVHEFRDDPKAFELFALATEARELVIHAS
B2: il2ra_site2_2erj_sap_28_mot_HHH_b1_08185_000000106_0001_41_55_H_._HHH_b2_03845_af2_0001_0001200037_0000001_0_0001 (protein)
chain: SSSSDEEEERLEELVERAERLLKEGNPEEAWEVLREAATLAWELGDEEIWSRLSKLTAEVASSSS
B3: il2ra_site2_3nfp_normal_mot_HHH_b1_04781_af2_000000057_0001_1_18_H_._HHH_b2_00872_0001_0000300014_0000001_1 (protein)
chain: SSSSDKERLEEAIRMALDIAHANNDEEVFRRIEELLEEFKEEGDPRYTLEAYELALEAYRKSSSS
B4: il2ra_site1_2b5i_normal_mot_HHH_b2_04910_000000118_0001_1_19_H_._HHH_b1_02607_0001_0000100006_0000001_1_af2pred_0001_af2pred (protein)
chain: SSSSDREELKELLREANELFKNGDPEEAERVLREAIELARELGDRAALKFLEVALKIIEASSSSS
B5: il2ra_site2_3nfp_sap_22_mot_HHH_b2_05582_af2_000000159_0001_22_38_H_._HHH_b2_07708_af2_0001_0000200013_0000001_0_0001 (protein)
chain: SSSSDKAEEYLRAARELIKRAIEEGDEESARRMLEVAINAAEDNGDEEALEELQEILEKLSSSSS
B6: il2ra_site2_2erj_normal_mot_HHH_b2_01204_af2_000000056_0001_19_34_H_._HHH_b1_00244_af2_0001_0000700018_0000001_0 (protein)
chain: SSSSDEELERRIEELLKEAEELYERGNLEEVYKLLVEALHLASKNQDQEAIRLVAEVAERLSSSS
B7: il2ra_site1_2b5i_normal_mot_HHH_b1_08745_af2_000000166_0001_39_57_H_._HHH_b1_02799_0001_0000100008_0000001_0_af2pred_dldesign_0_af2pred (protein)
chain: SSSSSPEGKEVLRLLEEAEAALKAGDEAGARALLEKALEIAKKAKSNLFVKFVEAALKALESSSS
B8: il2ra_site2_2erj_sap_21_mot_HHH_b2_06331_000000250_0001_1_15_H_._72ba95a0bb9e9d4b8a33329b97f5ad30_0001_1_0001_0000200003_0000001_1_0001 (protein)
chain: SSSSSDHVERVAELMREAVELSQNGNPEEAREVLEEALEIAQEGGDPELERAVELMIEFLSSSSS
B9: il2ra_site2_3nfp_normal_mot_HHH_b1_05785_af2_000000002_0001_41_57_H_._HHH_b2_03829_0001_0000400018_0000001_0 (protein)
chain: SSSSSKHERLIRLALESLETAIREGDEEKIRLSEEYIRAAIELANDEEAQRILEELEEELSSSSS
B10: il2ra_site2_2erj_sap_18_mot_HHH_b1_05020_af2_000000060_0001_23_40_H_._HEEHE_2487_0001_0000700037_0000001_0_0001 (protein)
chain: SSSSSEELHELFELIQELMRLLHEGDEERIRELREELEKLAEKLGSPETVRMVRKQVEAQLSSSS
B11: il2ra_site1_2b5i_normal_mot_HHH_b2_04910_000000118_0001_1_19_H_._HHH_b2_01402_0001_0000100006_0000001_0_af2pred_dldesign_0_af2pred (protein)
chain: SSSSNLEEARRLFLEADRLFQAGKKEEALETLEKAKKLAKEAGATLLTKMIEIAIKNLKENSSSS
B12: il2ra_site2_3nfp_normal_mot_HHH_b2_08245_000000023_0001_41_55_H_._HHH_b1_05961_0001_0000500029_0000001_0_af2pred_0001_af2pred (protein)
chain: SSSSSSDVEEEVEELLEEAKKADDELRRKLLLLEARRLAEEREDEELRRLVEEVAQELSSSSSSS
B13: il2ra_site2_3nfp_normal_mot_HHH_b1_00660_af2_000000090_0001_40_57_H_._HHH_b2_01268_0001_0000600053_0000001_0_af2pred_0001_af2pred (protein)
chain: SSSSSDEEEEEVEELLEEAKRIPDPEERERVLHRAALIAVEANDFELFALVNRVLEKLTSSSSSS
B14: il2ra_site1_1z92_sap_17_mot_HHH_b1_05516_af2_000000202_0001_21_38_H_._HHH_b1_00975_0001_0000200011_0000001_0_0001_af2pred_0001_af2pred_1 (protein)
chain: SEELLESVRRFAGGDPEKILRILLRIAKTQGELSPEQLEELEEKIREAIEKNDPRVEELLKELAN
B15: il2ra_site2_3nfp_sap_11_mot_HHH_b2_06897_000000042_0001_40_57_H_._HHH_b2_07419_0001_0000200035_0000001_0_0001 (protein)
chain: SSSSSREWARAAARTMLEALERNNDEENFEELREVVEEVEKEGDPRLVLKLYALLAEIYKKSSSS
B16: il2ra_site1_3nfp_normal_mot_HHH_b1_02235_000000281_0001_38_56_H_._70e64182809fe3cc67913f5218a30a03_0001_af2_0001_0000600025_0000001_0_af2pred_0001_af2pred_swapp … (protein)
chain: SREVSKLIKELARRATTPEQLRLLEEVAQLLAKNLEEALELLRELVKRYGDPLLEELLELLEELR
B17: il2ra_site1_3nfp_normal_mot_HHH_b1_03716_af2_000000235_0001_20_37_H_._HHH_b1_02112_0001_0000300016_0000001_1_af2pred_0001_af2pred_1 (protein)
chain: SSSSSDLRELLKEVEELLERIAKTTDPEERERLLERLEELAEENNDPTLKLVVELLRRALSSSSS
B18: il2ra_site1_1z92_sap_24_mot_HHH_b1_04917_000000121_0001_22_38_H_._HHH_b1_01483_af2_0001_0000600028_0000001_0_0001_af2pred_dldesign_0_af2pred (protein)
chain: SSSSSSEEELYDKVEELFKEASKLKDKEKRKKLLEEALELAKKANAPLLVKDIETYLKLLSSSSS

target: il2ra, P01589; assay: yeast display titration

Row | Binder | apparent Kd
1 | B1 | inactive: no binding seen
2 | B2 | inactive: no binding seen
3 | B3 | inactive: no binding seen
4 | B4 | inactive: no binding seen
5 | B5 | inactive: no binding seen
6 | B6 | inactive: no binding seen
7 | B7 | inactive: no binding seen
8 | B8 | inactive: no binding seen
9 | B9 | inactive: no binding seen
10 | B10 | inactive: no binding seen
11 | B11 | inactive: no binding seen
12 | B12 | inactive: no binding seen
13 | B13 | inactive: no binding seen
14 | B14 | inactive: no binding seen
15 | B15 | inactive: no binding seen
16 | B16 | inactive: no binding seen
17 | B17 | inactive: no binding seen
18 | B18 | inactive: no binding seen

An excerpt of these results, in markdown.

| Row | Binder | apparent Kd |
| --- | --- | --- |
| 16 | B16 | inactive: no binding seen |
| 17 | B17 | inactive: no binding seen |
